pIC50: −log10 of the molar value.

By UniProt entry, the sequences of proteins in these tests, tags left out.
UniProt Q13547, whole entry: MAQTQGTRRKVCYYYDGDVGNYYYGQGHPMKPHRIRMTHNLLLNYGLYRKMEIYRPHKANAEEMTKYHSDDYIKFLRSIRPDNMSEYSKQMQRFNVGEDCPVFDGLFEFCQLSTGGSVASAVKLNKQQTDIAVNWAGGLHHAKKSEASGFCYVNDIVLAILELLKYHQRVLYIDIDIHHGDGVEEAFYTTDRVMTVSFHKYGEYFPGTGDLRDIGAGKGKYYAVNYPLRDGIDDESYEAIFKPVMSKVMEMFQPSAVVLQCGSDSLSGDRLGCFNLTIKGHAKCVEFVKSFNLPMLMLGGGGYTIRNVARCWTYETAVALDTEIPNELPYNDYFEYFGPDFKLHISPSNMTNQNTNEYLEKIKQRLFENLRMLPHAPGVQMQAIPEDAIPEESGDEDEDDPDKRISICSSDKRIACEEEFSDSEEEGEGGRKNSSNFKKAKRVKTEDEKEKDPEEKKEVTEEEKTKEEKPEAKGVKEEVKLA

This assay addresses Histone deacetylase 1 (Homo sapiens, UniProt Q13547). Briefly: biochemical. The assay is classed as cell-based.

A word on the pIC50: it is the IC50 on a negative log10 scale, so that one unit is a factor of ten. A higher pIC50 goes with a low IC50. For the compound `O=C(NO)c1ccc(CNC(=O)c2nc(-c3nccs3)sc2C2CC2)cc1`, the pIC50 is 7.62.

(Values after ChEMBL document CHEMBL4354838, “Synthesis and in Vitro and in Vivo Biological Evaluation of Tissue-Specific Bisthiazole Histone Deacetylase (HDAC) Inhibitors” (J Med Chem, 2020).)
